Assay results: PMC13304329
No constants are given. Whether binding was seen depends on the method and setting. Binding seen in cells or lysates may run through a third protein. These calls come from enrichment with a bait or labelling near it, and not all partners need be listed.

By UniProt entry, the sequences of proteins in these tests, tags left out.
UniProt Q5S007: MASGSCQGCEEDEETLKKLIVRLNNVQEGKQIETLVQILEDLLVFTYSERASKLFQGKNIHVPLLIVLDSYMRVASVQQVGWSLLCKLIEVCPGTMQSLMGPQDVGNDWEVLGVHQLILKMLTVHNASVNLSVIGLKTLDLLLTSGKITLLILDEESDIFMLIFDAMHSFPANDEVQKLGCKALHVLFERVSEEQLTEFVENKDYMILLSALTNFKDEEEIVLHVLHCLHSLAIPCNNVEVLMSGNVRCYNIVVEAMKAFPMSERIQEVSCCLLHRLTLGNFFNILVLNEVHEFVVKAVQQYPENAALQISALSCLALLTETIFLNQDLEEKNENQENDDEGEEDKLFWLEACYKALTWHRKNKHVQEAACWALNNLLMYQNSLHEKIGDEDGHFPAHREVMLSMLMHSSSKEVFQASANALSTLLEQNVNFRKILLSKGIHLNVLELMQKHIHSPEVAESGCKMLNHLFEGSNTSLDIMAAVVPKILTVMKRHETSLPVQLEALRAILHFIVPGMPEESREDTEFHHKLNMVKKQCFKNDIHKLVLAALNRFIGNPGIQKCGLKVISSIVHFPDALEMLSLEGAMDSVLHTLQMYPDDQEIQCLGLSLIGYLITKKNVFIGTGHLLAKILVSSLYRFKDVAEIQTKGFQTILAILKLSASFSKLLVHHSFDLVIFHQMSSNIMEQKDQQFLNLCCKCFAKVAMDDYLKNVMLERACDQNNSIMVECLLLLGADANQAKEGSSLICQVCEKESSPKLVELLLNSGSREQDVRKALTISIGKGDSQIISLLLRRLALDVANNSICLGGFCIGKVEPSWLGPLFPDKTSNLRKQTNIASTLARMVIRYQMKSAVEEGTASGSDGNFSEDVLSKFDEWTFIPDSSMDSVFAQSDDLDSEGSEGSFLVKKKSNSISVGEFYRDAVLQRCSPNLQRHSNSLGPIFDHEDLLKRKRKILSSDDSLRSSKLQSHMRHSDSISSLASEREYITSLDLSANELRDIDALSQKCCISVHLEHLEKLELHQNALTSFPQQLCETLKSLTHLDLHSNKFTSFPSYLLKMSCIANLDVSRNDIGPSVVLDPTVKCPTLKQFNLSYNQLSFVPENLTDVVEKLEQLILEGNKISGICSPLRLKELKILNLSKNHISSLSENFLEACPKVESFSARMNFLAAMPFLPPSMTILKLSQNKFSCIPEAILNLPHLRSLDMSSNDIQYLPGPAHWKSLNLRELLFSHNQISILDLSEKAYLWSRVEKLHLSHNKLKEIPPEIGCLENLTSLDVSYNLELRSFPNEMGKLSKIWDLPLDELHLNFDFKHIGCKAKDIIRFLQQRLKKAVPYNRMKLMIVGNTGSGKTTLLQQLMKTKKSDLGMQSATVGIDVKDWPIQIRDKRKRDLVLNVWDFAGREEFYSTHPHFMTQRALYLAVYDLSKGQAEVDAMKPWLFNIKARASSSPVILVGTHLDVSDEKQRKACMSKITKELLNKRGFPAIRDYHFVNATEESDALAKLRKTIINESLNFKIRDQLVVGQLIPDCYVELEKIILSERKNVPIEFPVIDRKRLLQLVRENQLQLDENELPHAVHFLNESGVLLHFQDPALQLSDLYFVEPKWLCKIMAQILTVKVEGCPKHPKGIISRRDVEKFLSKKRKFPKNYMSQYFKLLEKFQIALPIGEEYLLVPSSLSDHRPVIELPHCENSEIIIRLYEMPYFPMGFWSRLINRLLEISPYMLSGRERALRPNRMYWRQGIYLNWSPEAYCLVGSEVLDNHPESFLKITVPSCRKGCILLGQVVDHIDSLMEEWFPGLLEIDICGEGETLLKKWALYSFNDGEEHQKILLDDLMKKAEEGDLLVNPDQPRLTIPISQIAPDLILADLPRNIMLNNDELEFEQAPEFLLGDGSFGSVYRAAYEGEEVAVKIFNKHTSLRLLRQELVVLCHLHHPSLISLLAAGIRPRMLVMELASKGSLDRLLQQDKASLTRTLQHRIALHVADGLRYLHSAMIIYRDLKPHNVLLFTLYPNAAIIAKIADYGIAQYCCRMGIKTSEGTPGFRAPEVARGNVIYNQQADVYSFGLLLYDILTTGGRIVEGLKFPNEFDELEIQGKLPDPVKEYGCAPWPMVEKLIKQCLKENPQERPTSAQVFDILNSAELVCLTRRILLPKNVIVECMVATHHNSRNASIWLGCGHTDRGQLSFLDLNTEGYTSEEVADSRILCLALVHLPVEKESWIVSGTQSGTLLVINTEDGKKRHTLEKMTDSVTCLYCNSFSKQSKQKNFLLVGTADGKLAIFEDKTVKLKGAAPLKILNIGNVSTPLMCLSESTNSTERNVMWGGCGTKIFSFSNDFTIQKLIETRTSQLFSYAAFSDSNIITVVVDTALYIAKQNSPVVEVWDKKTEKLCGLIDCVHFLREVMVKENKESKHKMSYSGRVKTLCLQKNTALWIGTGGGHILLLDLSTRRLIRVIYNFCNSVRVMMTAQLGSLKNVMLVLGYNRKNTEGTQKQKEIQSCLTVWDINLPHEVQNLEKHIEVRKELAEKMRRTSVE
UniProt Q9UHB6: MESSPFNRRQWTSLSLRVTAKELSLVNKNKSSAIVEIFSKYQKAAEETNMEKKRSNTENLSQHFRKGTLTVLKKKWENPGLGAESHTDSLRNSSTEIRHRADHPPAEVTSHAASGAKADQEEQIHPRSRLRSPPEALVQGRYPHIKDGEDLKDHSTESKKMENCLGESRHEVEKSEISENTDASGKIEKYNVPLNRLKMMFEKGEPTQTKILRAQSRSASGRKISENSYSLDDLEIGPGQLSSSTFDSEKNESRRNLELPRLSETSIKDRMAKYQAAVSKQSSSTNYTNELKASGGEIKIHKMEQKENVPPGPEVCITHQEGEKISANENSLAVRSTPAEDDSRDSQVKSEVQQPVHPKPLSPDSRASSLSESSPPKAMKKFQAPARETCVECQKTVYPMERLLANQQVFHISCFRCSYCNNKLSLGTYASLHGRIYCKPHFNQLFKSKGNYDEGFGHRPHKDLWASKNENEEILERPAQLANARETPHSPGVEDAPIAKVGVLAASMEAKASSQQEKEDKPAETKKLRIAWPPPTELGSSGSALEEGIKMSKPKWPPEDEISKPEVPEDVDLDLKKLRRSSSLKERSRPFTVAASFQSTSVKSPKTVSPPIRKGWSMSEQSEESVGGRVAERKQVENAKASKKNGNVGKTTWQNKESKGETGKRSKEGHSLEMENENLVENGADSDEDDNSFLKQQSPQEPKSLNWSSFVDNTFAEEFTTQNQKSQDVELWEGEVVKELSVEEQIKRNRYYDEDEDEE

B1: Centrosomal protein of 131 kDa (protein, UniProt Q9UPN4 1-1083)
chain: MKGTRAIGSVPERSPAGVDLSLTGLPPPVSRRPGSAATTKPIVRSVSVVTGSEQKRKVLEATGPGGSQAINNLRRSNSTTQVSQPRSGSPRPTEPTDFLMLFEGSPSGKKRPASLSTAPSEKGATWNVLDDQPRGFTLPSNARSSSALDSPAGPRRKECTVALAPNFTANNRSNKGAVGNCVTTMVHNRYTPSERAPPLKSSNQTAPSLNNIIKAATCEGSESSGFGKLPKNVSSATHSARNNTGGSTGLPRRKEVTEEEAERFIHQVNQATVTIQRWYRHQVQRRGAGAARLEHLLQAKREEQRQRSGEGTLLDLHQQKEAARRKAREEKARQARRAAIQELQQKRALRAQKASTAERGPPENPRETRVPGMRQPAQELSPTPGGTAHQALKANNTGGGLPAAGPGDRCLPTSDSSPEPQQPPEDRTQDVLAQDAAGDNLEMMAPSRGSAKSRGPLEELLHTLQLLEKEPDVLPRPRTHHRGRYAWASEVTTEDDASSLTADNLEKFGKLSAFPEPPEDGTLLSEAKLQSIMSFLDEMEKSGQDQLDSQQEGWVPEAGPGPLELGSEVSTSVMRLKLEVEEKKQAMLLLQRALAQQRDLTARRVKETEKALSRQLQRQREHYEATIQRHLAFIDQLIEDKKVLSEKCEAVVAELKQEDQRCTERVAQAQAQHELEIKKLKELMSATEKARREKWISEKTKKIKEVTVRGLEPEIQKLIARHKQEVRRLKSLHEAELLQSDERASQRCLRQAEELREQLEREKEALGQQERERARQRFQQHLEQEQWALQQQRQRLYSEVAEERERLGQQAARQRAELEELRQQLEESSSALTRALRAEFEKGREEQERRHQMELNTLKQQLELERQAWEAGRTRKEEAWLLNREQELREEIRKGRDKEIELVIHRLEADMALAKEESEKAAESRIKRLRDKYEAELSELEQSERKLQERCSELKGQLGEAEGENLRLQGLVRQKERALEDAQAVNEQLSSERSNLAQVIRQEFEDRLAASEEETRQAKAELATLQARQQLELEEVHRRVKTALARKEEAVSSLRTQHEAAVKRADHLEELLEQHRRPTPSTK
B2: Dermcidin (protein, UniProt P81605 20-110)
chain: YDPEAASAPGSGNPCHEASAAQKENAGEDPGLARQAPKPRKQRSSLLEKGLDGAKKAVGGLGKLGKDAVEDLESVGKGAVHDVKDVLDSVL
B3: Deubiquitinating protein VCPIP1 (enzyme, UniProt Q96JH7 1-1222)
chain: MSQPPPPPPPLPPPPPPPEAPQTPSSLASAAASGGLLKRRDRRILSGSCPDPKCQARLFFPASGSVSIECTECGQRHEQQQLLGVEEVTDPDVVLHNLLRNALLGVTGAPKKNTELVKVMGLSNYHCKLLSPILARYGMDKQTGRAKLLRDMNQGELFDCALLGDRAFLIEPEHVNTVGYGKDRSGSLLYLHDTLEDIKRANKSQECLIPVHVDGDGHCLVHAVSRALVGRELFWHALRENLKQHFQQHLARYQALFHDFIDAAEWEDIINECDPLFVPPEGVPLGLRNIHIFGLANVLHRPIILLDSLSGMRSSGDYSATFLPGLIPAEKCTGKDGHLNKPICIAWSSSGRNHYIPLVGIKGAALPKLPMNLLPKAWGVPQDLIKKYIKLEEDGGCVIGGDRSLQDKYLLRLVAAMEEVFMDKHGIHPSLVADVHQYFYRRTGVIGVQPEEVTAAAKKAVMDNRLHKCLLCGALSELHVPPEWLAPGGKLYNLAKSTHGQLRTDKNYSFPLNNLVCSYDSVKDVLVPDYGMSNLTACNWCHGTSVRKVRGDGSIVYLDGDRTNSRSTGGKCGCGFKHFWDGKEYDNLPEAFPITLEWGGRVVRETVYWFQYESDSSLNSNVYDVAMKLVTKHFPGEFGSEILVQKVVHTILHQTAKKNPDDYTPVNIDGAHAQRVGDVQGQESESQLPTKIILTGQKTKTLHKEELNMSKTERTIQQNITEQASVMQKRKTEKLKQEQKGQPRTVSPSTIRDGPSSAPATPTKAPYSPTTSKEKKIRITTNDGRQSMVTLKSSTTFFELQESIAREFNIPPYLQCIRYGFPPKELMPPQAGMEKEPVPLQHGDRITIEILKSKAEGGQSAAAHSAHTVKQEDIAVTGKLSSKELQEQAEKEMYSLCLLATLMGEDVWSYAKGLPHMFQQGGVFYSIMKKTMGMADGKHCTFPHLPGKTFVYNASEDRLELCVDAAGHFPIGPDVEDLVKEAVSQVRAEATTRSRESSPSHGLLKLGSGGVVKKKSEQLHNVTAFQGKGHSLGTASGNPHLDPRARETSVVRKHNTGTDFSNSSTKTEPSVFTASSSNSELIRIAPGVVTMRDGRQLDPDLVEAQRKKLQEMVSSIQASMDRHLRDQSTEQSPSDLPQRKTEVVSSSAKSGSLQTGLPESFPLTGGTENLNTETTDGCVADALGAAFATRSKAQRGNSVEELEEMDSQDAEMTNTTEPMDHS
B4: Centrosomal protein 43 (protein, UniProt O95684 1-399)
chain: MAATAAAVVAEEDTELRDLLVQTLENSGVLNRIKAELRAAVFLALEEQEKVENKTPLVNESLKKFLNTKDGRLVASLVAEFLQFFNLDFTLAVFQPETSTLQGLEGRENLARDLGIIEAEGTVGGPLLLEVIRRCQQKEKGPTTGEGALDLSDVHSPPKSPEGKTSAQTTPSKIPRYKGQGKKKTSGQKAGDKKANDEANQSDTSVSLSEPKSKSSLHLLSHETKIGSFLSNRTLDGKDKAGLCPDEDDMEGDSFFDDPIPKPEKTYGLRKEPRKQAGSLASLSDAPPLKSGLSSLAGAPSLKDSESKRGNTVLKDLKLISDKIGSLGLGTGEDDDYVDDFNSTSHRSEKSEISIGEEIEEDLSVEIDDINTSDKLDDLTQDLTVSQLSDVADYLEDVA
B5: Centrosomal protein of 85 kDa-like (protein, UniProt Q5SZL2 1-805)
chain: MWGRFLAPEASGRDSPGGARSFPAGPDYSSAWLPANESLWQATTVPSNHRNNHIRRHSIASDSGDTGIGTSCSDSVEDHSTSSGTLSFKPSQSLITLPTAHVMPSNSSASISKLRESLTPDGSKWSTSLMQTLGNHSRGEQDSSLDMKDFRPLRKWSSLSKLTAPDNCGQGGTVCREESRNGLEKIGKAKALTSQLRTIGPSCLHDSMEMLRLEDKEINKKRSSTLDCKYKFESCSKEDFRASSSTLRRQPVDMTYSALPESKPIMTSSEAFEPPKYLMLGQQAVGGVPIQPSVRTQMWLTEQLRTNPLEGRNTEDSYSLAPWQQQQIEDFRQGSETPMQVLTGSSRQSYSPGYQDFSKWESMLKIKEGLLRQKEIVIDRQKQQITHLHERIRDNELRAQHAMLGHYVNCEDSYVASLQPQYENTSLQTPFSEESVSHSQQGEFEQKLASTEKEVLQLNEFLKQRLSLFSEEKKKLEEKLKTRDRYISSLKKKCQKESEQNKEKQRRIETLEKYLADLPTLDDVQSQSLQLQILEEKNKNLQEALIDTEKKLEEIKKQCQDKETQLICQKKKEKELVTTVQSLQQKVERCLEDGIRLPMLDAKQLQNENDNLRQQNETASKIIDSQQDEIDRMILEIQSMQGKLSKEKLTTQKMMEELEKKERNVQRLTKALLENQRQTDETCSLLDQGQEPDQSRQQTVLSKRPLFDLTVIDQLFKEMSCCLFDLKALCSILNQRAQGKEPNLSLLLGIRSMNCSAEETENDHSTETLTKKLSDVCQLRRDIDELRTTISDRYAQDMGDNCITQ
B6: TRMT1-like protein (protein, UniProt Q7Z2T5 1-733)
chain: MENMAEEELLPLEKEEVEVAQVQVPTPARDSAGVPAPAPDSALDSAPTPASAPAPAPALAQAPALSPSLASAPEEAKSKRHISIQRQLADLENLAFVTDGNFDSASSLNSDNLDAGNRQACPLCPKEKFRACNSHKLRRHLQNLHWKVSVEFEGYRMCICHLPCRPVKPNIIGEQITSKMGAHYHCIICSATITRRTDMLGHVRRHMNKGETKSSYIAASTAKPPKEILKEADTDVQVCPNYSIPQKTDSYFNPKMKLNRQLIFCTLAALAEERKPLECLDAFGATGIMGLQWAKHLGNAVKVTINDLNENSVTLIQENCHLNKLKVVVDSKEKEKSDDILEEGEKNLGNIKVTKMDANVLMHLRSFDFIHLDPFGTSVNYLDSAFRNIRNLGIVSVTSTDISSLYAKAQHVARRHYGCNIVRTEYYKELAARIVVAAVARAAARCNKGIEVLFAVALEHFVLVVVRVLRGPTSADETAKKIQYLIHCQWCEERIFQKDGNMVEENPYRQLPCNCHGSMPGKTAIELGPLWSSSLFNTGFLKRMLFESLHHGLDDIQTLIKTLIFESECTPQSQFSIHASSNVNKQEENGVFIKTTDDTTTDNYIAQGKRKSNEMITNLGKKQKTDVSTEHPPFYYNIHRHSIKGMNMPKLKKFLCYLSQAGFRVSRTHFDPMGVRTDAPLMQFKSILLKYSTPTYTGGQSESHVQSASEDTVTERVEMSVNDKAEASGCRRW

target: miniTurbo-LRRK2 (human) (UniProt Q5S007); assay: proximity labelling; HEK293 stably expressing mT-LRRK2; 1 uM MLi-2 against DMSO, 1 h prior to and during 2 h of 50 uM biotin; Strep-Tactin enrichment, LC-MSMS, LFQ with FDR-controlled t test

| binding | Molecule |
| --- | --- |
| binds | LIM domain and actin-binding protein 1 (from UniProt Q9UHB6 1-759) |
| binds | B1 |
| binds | B2 |

target: LRRK2 with an N-terminal BioID tag (BioID1-LRRK2, BioID2-LRRK2 or miniTurbo-LRRK2; pooled 'BioID set') (human) (UniProt Q5S007); assay: proximity labelling; BioID1-, BioID2- or miniTurbo-LRRK2 transiently expressed in HEK293T against the tag-only control; 50 uM biotin (up to 16 h; miniTurbo 2 h after overnight starvation); Strep-Tactin enrichment, LC-MSMS; SAINTexpress and CRAPome filter, hits of the three tags unified ('BioID set')

| binding | Molecule |
| --- | --- |
| binds | B3 |
| binds | B4 |
| binds | B5 |
| binds | B6 |
